The source of these data is publication PMC11220018.

Amino acid sequences for entries named in this document (tags omitted). A change or cut given only in a name is not applied to a line headed by its entry.
UniProt P05556: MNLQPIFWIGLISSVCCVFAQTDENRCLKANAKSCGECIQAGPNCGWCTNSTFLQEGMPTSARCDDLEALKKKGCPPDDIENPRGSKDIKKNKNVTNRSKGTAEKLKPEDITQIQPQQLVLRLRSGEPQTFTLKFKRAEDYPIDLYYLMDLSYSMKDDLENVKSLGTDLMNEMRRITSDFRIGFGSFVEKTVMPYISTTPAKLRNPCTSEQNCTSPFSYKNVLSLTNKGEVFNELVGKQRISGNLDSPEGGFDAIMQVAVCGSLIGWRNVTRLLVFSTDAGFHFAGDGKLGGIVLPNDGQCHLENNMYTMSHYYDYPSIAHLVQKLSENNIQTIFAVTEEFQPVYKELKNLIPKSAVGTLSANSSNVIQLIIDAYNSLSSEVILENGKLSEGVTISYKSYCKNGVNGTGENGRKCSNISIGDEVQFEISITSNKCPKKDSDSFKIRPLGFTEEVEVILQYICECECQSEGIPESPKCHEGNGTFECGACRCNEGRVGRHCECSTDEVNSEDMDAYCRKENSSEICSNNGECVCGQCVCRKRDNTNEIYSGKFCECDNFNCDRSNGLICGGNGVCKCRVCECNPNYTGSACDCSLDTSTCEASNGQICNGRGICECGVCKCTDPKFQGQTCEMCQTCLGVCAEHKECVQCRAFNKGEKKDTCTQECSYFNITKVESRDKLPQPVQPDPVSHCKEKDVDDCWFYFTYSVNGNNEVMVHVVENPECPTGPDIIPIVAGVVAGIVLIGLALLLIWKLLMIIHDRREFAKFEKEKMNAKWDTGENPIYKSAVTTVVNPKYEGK

Results are given in words; binding and its absence hold for the method and conditions named. In cells and extracts the contact can be indirect. Some binding calls cover weakened binding; strength is not graded here.

Test [1] concerns the target NRP1 (human (endogenous in LX-2)) (UniProt O14786). The test can be described thus: co-IP; LX-2 cells treated with supernatant (CM) of OE-Sema3C Hep3B cells; lysate, rProtein A/G magnetic beads, western blot. Background: Immunoblotting shows a protein as a band on a membrane.
A further test has as its target NRP1 (UniProt O14786). The test can be described thus: co-IP; Huh7 cell lysates; anti-Flag or anti-HA or IgG control overnight at 4 °C, rProtein A/G MagPoly beads, western blot; also after knock-down of NRP1 or of ITGB1.
Another test has as its target T1, Semaphorin 3C (UniProt Q99985).
T1 sequence: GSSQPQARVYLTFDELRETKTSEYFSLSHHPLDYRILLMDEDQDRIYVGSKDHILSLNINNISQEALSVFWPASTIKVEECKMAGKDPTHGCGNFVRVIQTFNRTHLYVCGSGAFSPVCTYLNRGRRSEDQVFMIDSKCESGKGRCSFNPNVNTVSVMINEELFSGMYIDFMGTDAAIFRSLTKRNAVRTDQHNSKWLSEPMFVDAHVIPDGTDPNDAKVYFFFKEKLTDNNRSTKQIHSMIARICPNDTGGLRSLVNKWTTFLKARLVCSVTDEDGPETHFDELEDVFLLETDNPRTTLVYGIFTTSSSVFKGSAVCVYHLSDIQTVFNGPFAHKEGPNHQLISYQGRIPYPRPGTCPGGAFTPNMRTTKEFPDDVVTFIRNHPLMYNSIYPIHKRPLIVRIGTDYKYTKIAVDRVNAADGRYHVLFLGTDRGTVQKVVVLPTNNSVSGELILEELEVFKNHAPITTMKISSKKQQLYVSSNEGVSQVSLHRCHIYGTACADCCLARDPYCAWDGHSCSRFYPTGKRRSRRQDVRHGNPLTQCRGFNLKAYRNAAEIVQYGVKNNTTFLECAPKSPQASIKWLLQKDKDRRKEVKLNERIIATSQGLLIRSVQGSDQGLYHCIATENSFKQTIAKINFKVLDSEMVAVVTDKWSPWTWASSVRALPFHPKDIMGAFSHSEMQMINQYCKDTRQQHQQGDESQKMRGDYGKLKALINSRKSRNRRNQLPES
The description is as above.

In the case of “ITGB1 (from UniProt P05556 21-798) (receptor)”, the binding entry (in test [1]; with NRP1) was “binds” in each case.

As for “NRP1 (from UniProt O14786 22-923) (receptor)”, in the test with Semaphorin 3C, the binding entry is recorded as “binds”.
